This passage reports Cmax results from patent US4874856A, “3-(substituted)propenyl-7-(aminothiazolylacetamido) ceph-3-em-4-carboxylic acids and esters thereof” (Bristol-Myers Company, priority 1987, dated 1989).

SMILES strings stand for the structures.

The nature of this series: Mouse blood levels after oral administration (Table 2). As to conditions: in vivo.

What is called Cmax is the maximum level reached in the sampled fluid or tissue. Turning to `N[C@@H](C(=O)N[C@@H]1C(=O)N2C(C(=O)O)=C(Cl)CS[C@H]12)c1ccccc1` [Cefaclor], the Cmax by setting is: (20 mg/kg) 8500 ng/mL; (100 mg/kg) 26000 ng/mL.
